Measured values taken from PMC12548414.
Screen size: about 1,600 compounds; about 20 (1%) showed an effect of 50% or more. The list shows a part of the results.

Test system: T1, E. coli pLC1021 (luc-trpAt trans-translation reporter)
T1 construct: pLC1021 luc-trpAt reporter strain
Parameters: species or system Escherichia coli pLC1021; luc-trpAt non-stop luciferase reporter; luminescence rises when trans-translation is inhibited; normalized to KKL-35 and DMSO
Conditions: reporter signal, KKL-35 = 100%; rise means trans-translation inhibition; 2 h, 20 µM
Procedure, shortened: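 Luminescence (560 nm, 10 min after Bright-Glo) reports luciferase that escapes trans-translation tagging, measured after 2 h room-temperature treatment with 20 µM compound. Each plate was scaled between DMSO (negative) and 20 µM KKL-35 (positive) controls. Compounds scoring one standard deviation above the median counted as positive; at least two biological repeats.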

Row | Compound | % activation [%]
1 | COc1ccc(C(=O)C(CN2CCOCC2)c2ccccc2)cc1 (stereo not drawn) [KKL-0352] | 0
2 | CC(=O)NC(=S)NNC(=O)c1ccc(C(C)(C)C)cc1 [KKL-0588] | 143
3 | Cc1oc(C(=O)Nc2ncc(Cc3ccccc3F)s2)cc1CN1CCOCC1 [KKL-0938] | 0
4 | COc1ccc(Nc2ccccc2N)cc1 [KKL-0833] | 0
5 | Oc1nc(-c2ccccn2)nc2sc(-c3ccccc3)cc12 [KKL-0817] | 20
6 | COc1cc(NC(=O)c2cc3ccccc3o2)ccc1NC(=O)c1ccccc1Cl [KKL-1466] | 0
7 | Cc1cc(=O)oc2cc(OCC(=O)OC3CCCCC3)ccc12 [KKL-1250] | 7
8 | CCCCc1cccc(C(=O)Nc2nnc(S(=O)(=O)CCCC)s2)n1 [KKL-1853] | 6
9 | N#Cc1cccc(-c2ccc(NCC3CCC(CN(C(=O)O)c4cccnn4)CC3)nc2)c1 (stereo not drawn) [KKL-1855] | 0
10 | O=C(Nc1ccccc1Br)c1ccc([N+](=O)[O-])o1 [KKL-0424] | 0
11 | CCc1c(C)nc(-n2nc(C)cc2NC(=O)c2ccccc2SC)[nH]c1=O [KKL-1708] | 2
12 | CCCCCCc1cc2cc(C(=O)NC)c(=N)oc2cc1O [KKL-1013] | 12
13 | Cc1ccc2nc(C)c(C(=O)NCC(C)C)n2c1 [KKL-1757] | 3
14 | Cc1ccc(C(=O)NC[C@H]2C[C@@H]3CCN2C[C@@H]3c2cc(-c3ccc4ccccc4c3)nn2C)cc1 [KKL-0337] | 0
15 | Cc1ccccc1N1CCN(C2CCCN(C(=O)c3ccc4c(c3)no[n+]4[O-])C2)CC1 (stereo not drawn) [KKL-0625] | 2
16 | O=[N+]([O-])c1ccc(NCCNc2nc3ccccc3nc2N2CCOCC2)cc1 [KKL-0399] | 9
17 | CN1CCN(c2cc(-c3ccncc3)nc(-c3ccccc3)n2)CC1 [KKL-1795] | 237
18 | Cc1cc(C)c(C(=O)/C=C/c2cccc([N+](=O)[O-])c2)cc1C [KKL-0409] | 0
19 | NC(CC(=O)c1ccc(Cl)cc1Cl)C(Cl)(Cl)Cl (stereo not drawn) [KKL-0766] | 0
20 | COc1cccc(C(=O)Nc2nc(-c3ccccc3)c(-c3ccccc3)o2)c1 [KKL-1006] | 9
21 | Cc1ccc2oc(SC(=O)Nc3nccs3)nc2n1 [KKL-1872] | 0
22 | NC1CCN(c2c(F)cc3c(=O)c(C(=O)O)cn(C4CC4)c3c2Cl)C1 (stereo not drawn) [KKL-1008] | 38
23 | CCCCc1ccc(C(=O)Nc2nccc3ccccc23)nc1 [KKL-1763] | 50
24 | CCCOc1ccccc1NC(=O)Nc1ccc(Cl)c(Cl)c1 [KKL-0411] | 2

Arranged by SMILES length (smallest number first): part of the list above.
Row | Compound | % activation [%]
4 | COc1ccc(Nc2ccccc2N)cc1 [KKL-0833] | 0
21 | Cc1ccc2oc(SC(=O)Nc3nccs3)nc2n1 [KKL-1872] | 0
23 | CCCCc1ccc(C(=O)Nc2nccc3ccccc23)nc1 [KKL-1763] | 50
24 | CCCOc1ccccc1NC(=O)Nc1ccc(Cl)c(Cl)c1 [KKL-0411] | 2
10 | O=C(Nc1ccccc1Br)c1ccc([N+](=O)[O-])o1 [KKL-0424] | 0
17 | CN1CCN(c2cc(-c3ccncc3)nc(-c3ccccc3)n2)CC1 [KKL-1795] | 237
8 | CCCCc1cccc(C(=O)Nc2nnc(S(=O)(=O)CCCC)s2)n1 [KKL-1853] | 6
6 | COc1cc(NC(=O)c2cc3ccccc3o2)ccc1NC(=O)c1ccccc1Cl [KKL-1466] | 0
22 | NC1CCN(c2c(F)cc3c(=O)c(C(=O)O)cn(C4CC4)c3c2Cl)C1 (stereo not drawn) [KKL-1008] | 38
9 | N#Cc1cccc(-c2ccc(NCC3CCC(CN(C(=O)O)c4cccnn4)CC3)nc2)c1 (stereo not drawn) [KKL-1855] | 0
14 | Cc1ccc(C(=O)NC[C@H]2C[C@@H]3CCN2C[C@@H]3c2cc(-c3ccc4ccccc4c3)nn2C)cc1 [KKL-0337] | 0

(further entries)

Row | Compound | % activation [%]
25 | O=C(c1[nH]nc2c1CCCC2)N1CCN(Cc2ccc3c(c2)OCO3)CC1 [KKL-1704] | 0
26 | CCOC(=O)c1c(CSc2ccccc2)n(-c2ccccc2)c2ccc(O)c(CN(C)C)c12 [KKL-0298] | 0
27 | Cc1ccc(C(=O)CC(=O)c2cc(Cl)ccc2O)cc1 [KKL-0456] | 0
28 | Cc1cc(C)c(-n2cccn2)c(CN(CCCn2ccnc2)Cc2ccc(F)cc2)c1 [KKL-1032] | 8
29 | CCc1ccc(CCC(=O)Nc2ccc(C)cc2)o1 [KKL-1248] | 0
30 | CN(C)c1ccc(N=Nc2nc3ccccc3n2C)cc1 [KKL-1056] | 0
31 | COc1ccc(-c2nc(CN3CCC4(C=Cc5ccccc54)CC3)c(C)o2)c(OC)c1C [KKL-0487] | 0
32 | CC(Oc1ccccc1)C(=O)Nc1nc(-c2ccccn2)cs1 (stereo not drawn) [KKL-1690] | 15
33 | CC(C)(C)c1ccc(C(O)CN2CCC3(CC2)CC(O)c2cc(F)ccc2O3)cc1 (stereo not drawn) [KKL-0935] | 0
34 | COc1ccccc1N1CCN(Cc2nc(-c3ccc(C)cc3)no2)CC1 [KKL-1207] | 5
35 | COc1ccc(-c2nnc3sc(Cc4csc(C)n4)nn23)cc1 [KKL-1783] | 0
36 | COc1ccccc1OC(=O)c1sc2ccccc2c1Cl [KKL-0908] | 0
37 | Fc1cccc(Cl)c1C1c2[nH]c3ccccc3c2CCN1Cc1ncc[nH]1 (stereo not drawn) [KKL-0643] | 6
38 | O=C(Nc1ccc(Cl)cc1)NC1CC2CCC1C2 (stereo not drawn) [KKL-0577] | 0
39 | Cc1scc(C(=O)NCc2ccco2)c1-c1ccccc1 [KKL-0613] | 1
40 | O=C(COc1ccccc1)N1CCN(c2cnc3ccccc3n2)CC1 [KKL-1867] | 22
41 | CCOC(=O)CSc1nc(C#N)c(SCC(=O)OCC)s1 [KKL-0955] | 12
42 | COc1cc(C(F)(F)F)nc2ccc(C)c(N)c12 [KKL-1833] | 7
43 | COC(=O)[C@@H]1Cc2c([nH]c3ccccc23)[C@H]2C[C@H](NC3CC3)C[C@@H](c3ccc(C(F)(F)F)cc3)N21 [KKL-1600] | 0
44 | Cc1ccc2cc(CNc3ccc(-c4nc5cc(C)ccc5[nH]4)cc3)c(O)nc2c1 [KKL-0534] | 0
45 | CN(Cc1cccc(-n2cccn2)c1)C(=O)c1ccc2nc(C3CCCCC3)oc2c1 [KKL-0621] | 0
46 | Cc1c(Cc2ccccc2)c(NCCCO)n2c(nc3ccccc32)c1C#N [KKL-1593] | 0
47 | Cc1cnc(NC(=O)CSc2ccc(Cl)cc2)s1 [KKL-0784] | 0
48 | CCCOC(=O)CSc1nnc(-c2ccc(N(C)C)cc2)o1 [KKL-1217] | 9
